Measured values taken from patent US20250255889A1, “METHODS FOR TREATMENT SELECTION FOR CHRONIC LYMPHOCYTIC LEUKEMIA (CLL)” (The Broad Institute, Inc., priority 2022, published 2025).
At least one structure is not confirmed: it was looked up by name or label, or the drawing left a doubt.

Test system: primary CLL samples (CD19+ and CD5+ cells)
Assay: High-throughput dynamic BH3 profiling (HT-DBP): drug-induced apoptotic priming (delta priming), cytochrome c release after BH3 peptide
Assay type: cell-based, human
Description: By “delta priming” is meant the difference in priming of a cell for apoptosis measured in the presence of an agent for treating chronic lymphocytic leukemia relative to priming of the cell in the presence of an inert carrier. In embodiments, the inert carrier is DMSO.
Dynamic BH3 Profiling Dynamic BH3 profiling (DBP) is a drug screening assay that measures the relative priming of cells in a biological sample for cell death by apoptosis in the presence of a specific compound and/or a pro-apoptotic peptide. By “Dynamic BH3 profiling” is meant measuring drug-induced changes in mitochondrial apoptotic priming. Mitochondrial apoptotic priming is a measure of how close to the apoptotic threshold a cell is. A highly primed cell has relatively less anti-apoptotic binding site availability and is closer to the apoptotic threshold than a poorly primed cell, which has more anti-apoptotic availability to buffer an apoptotic assault and is further from the apoptotic threshold. BH3 peptides derived from the BH3 domain of pro-apoptotic BH3-only proteins provoke a response from viable mitochondria. Cytochrome c released from the mitochondria after a short incubation with BH3 peptide is used as a surrogate for priming. In general, the more sensitive a mitochondrion is to a BH3 peptide, the more primed it is. A drug treatment that enhances priming will cause mitochondria to undergo MOMP more easily when incubated with a fixed concentration of a promiscuously binding BH3 peptide, such as BIM BH3 peptide, compared to control-treated cells. See, for example, Potter, D. S. & Letai, A. To prime, or not to prime: that is the question. Cold Spring Harb. Symp. Quant. Biol. 81, 131-140 (2016); Montero, J. et al. Drug-induced death signaling strategy rapidly predicts cancer response to chemotherapy. Cell 160, 977-989 (2015); Daniels, V. W. et al. Metabolic perturbations sensitize triple-negative breast cancers to apoptosis induced by BH3 mimetics. Sci.
Dynamic BH3 profiling and peptides for use therein are described, for example, in Certo, et al., “Mitochondria primed by death signals determine cellular addiction to antiapoptotic BCL-2 family members,” Cancer Cell, 9:351-365 (2006); and in Foight, et al. “Designed BH3 Peptides with High Affinity and Specificity for Targeting Mcl-1 in Cells,” ACS Chemical Biology, 9:1962-1968 (2014), the disclosures of which are incorporated herein by reference in their entireties for all purposes. The DBP assay enables one to compare the response of a patient tumor sample to a specific drug relative to other drugs and relative to an inert control (e.g., DMSO).
To address the challenge of selecting a proper treatment for a chronic lymphocytic leukemia, experiments were undertaken to optimize high-throughput dynamic BH3 profiling (HT-DBP) for evaluation of the drug sensitivities of CLL samples (FIGS. 1, 13, 5A, 5B, 6A, 6B, and 7A-7C).

Question: Which direction (peptide BAD 0.3 uM, feature EC-i) does the source give for Cc1ccc(C(=O)Nc2ccc(CN3CCN(C)CC3)c(C(F)(F)F)c2)cc1C#Cc1cnc2cccnn12 [Ponatinib] here?
Answer: Resistant

Question: What about the direction (peptide BAD 0.3 uM, feature IGLV321_R110) of the same molecule?
Answer: Resistant

Question: And the direction (peptide BAD 0.3 uM, feature NOTCH1)?
Answer: Resistant

Question: And the direction (peptide BAD 0.3 uM, feature RFX7)?
Answer: Sensitive

Question: And the direction (peptide BAD 0.3 uM, feature RPS15)?
Answer: Resistant

Question: And the direction (peptide BAD 0.3 uM, feature ZMYM3)?
Answer: Sensitive

Question: What about the direction (peptide BAD 0.3 uM, feature i-CLL) of the same molecule?
Answer: Resistant

Question: What about the direction (peptide BAD 0.3 uM, feature loss_3p13) of the same molecule?
Answer: Resistant

Question: What about the direction (peptide BAD 0.3 uM, feature loss_6q) of the same molecule?
Answer: Resistant

Question: And the direction (peptide BAD 0.3 uM, feature m-CLL)?
Answer: Sensitive

Question: And the direction (peptide BIM 0.01 uM, feature EC-i)?
Answer: Resistant

Question: What about the direction (peptide BIM 0.01 uM, feature IGLV321_R110) of the same molecule?
Answer: Resistant

Question: What about the direction (peptide BIM 0.01 uM, feature M-CLL) of the same molecule?
Answer: Sensitive

Question: What about the direction (peptide BIM 0.01 uM, feature NOTCH1) of the same molecule?
Answer: Resistant

Question: What about the direction (peptide BIM 0.01 uM, feature RFX7) of the same molecule?
Answer: Resistant

Question: What about the direction (peptide BIM 0.01 uM, feature RPS15) of the same molecule?
Answer: Resistant

Question: What about the direction (peptide BIM 0.01 uM, feature U-CLL) of the same molecule?
Answer: Resistant

Question: And the direction (peptide BIM 0.01 uM, feature ZMYM3)?
Answer: Resistant

Question: And the direction (peptide BIM 0.01 uM, feature i-CLL)?
Answer: Resistant

Question: And the direction (peptide BIM 0.01 uM, feature loss_2q31.1)?
Answer: Resistant

Question: What about the direction (peptide BIM 0.01 uM, feature loss_6q) of the same molecule?
Answer: Resistant

Question: What about the direction (peptide BIM 0.01 uM, feature loss_10p12.2) of the same molecule?
Answer: Resistant

Question: And the direction (peptide BIM 0.01 uM, feature m-CLL)?
Answer: Sensitive

Question: What about the direction (peptide BIM 0.01 uM, feature priortrt_Post) of the same molecule?
Answer: Resistant

Question: And the direction (peptide MS1 2.5 uM, feature FBXW7)?
Answer: Resistant

Question: And the direction (peptide MS1 2.5 uM, feature IGLV321_R110)?
Answer: Resistant

Question: And the direction (peptide MS1 2.5 uM, feature NOTCH1)?
Answer: Resistant

Question: And the direction (peptide MS1 2.5 uM, feature RFX7)?
Answer: Resistant

Question: And the direction (peptide MS1 2.5 uM, feature RPS15)?
Answer: Resistant

Question: And the direction (peptide MS1 2.5 uM, feature ZMYM3)?
Answer: Resistant

Question: And the direction (peptide MS1 2.5 uM, feature loss_2q31.1)?
Answer: Resistant

Question: And the direction (peptide MS1 2.5 uM, feature loss_6q)?
Answer: Resistant

Question: And the direction (peptide MS1 2.5 uM, feature loss_10p12.2)?
Answer: Resistant

Question: And the direction (peptide MS1 2.5 uM, feature loss_10q24.2)?
Answer: Resistant

Question: And the direction (peptide MS1 2.5 uM, feature priortrt_Post)?
Answer: Resistant

Question: And the direction (peptide PUMA 1 uM, feature RFX7)?
Answer: Resistant

Question: What about the direction (peptide PUMA 1 uM, feature ZMYM3) of the same molecule?
Answer: Resistant

Question: And the direction (peptide PUMA 1 uM, feature loss_2q31.1)?
Answer: Resistant

Question: What about the direction (peptide PUMA 1 uM, feature loss_10p12.2) of the same molecule?
Answer: Resistant

Question: What about the direction (peptide PUMA 1 uM, feature m-CLL) of the same molecule?
Answer: Sensitive

Question: What about the direction (peptide PUMA 1 uM, feature priortrt_Post) of the same molecule?
Answer: Resistant
